PubChem BioAssay AID652243 – Drosophila RNAi Screening Center – 2013
Screen: 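Knock-downs that decrease or increase androgen receptor reporter signal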 (primary screen). Cell system: Drosophila S2R+ cells. Knock-down reagent: long dsRNA against Drosophila genes. Time to read-out: 72 h (48 h, then 24 h hormone). Treatment: synthetic androgen R1881 at 10 nM for 24 h. Detection: 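Firefly light from an androgen-responsive reporter and Renilla control light per well, raw and unnormalised, for each of two replicates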. Scale: firefly reporter light: higher = more light from androgen-responsive reporter; Renilla control light: higher = more constitutive control signal (cell number, transfection). Rule for the call: 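Hit when the log firefly-to-Renilla ratio dropped or increased by a fixed fold versus the mean of GFP or LacZ controls across duplicate plates; lowering cut given as 1.5 and as 3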. Meaning of the calls: active = hit: reporter lowered or raised; inactive = no hit.
The deposit covers about 24,000 reagents; below is a random part of those with a known target gene and a result. In the full data, 246 (1%) got an active call. 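Plates not normalised; calls are printed but the firefly/Renilla ratio behind them is not deposited; fold cut for lowering reported inconsistently.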 The raw values are shown without normalisation. Not given: the amount of reagent.

Ccp84Af [DRSC12591]
- firefly reporter light, replicate 1: 70209
- firefly reporter light, replicate 2: 84110
- Renilla control light, replicate 1: 9.81e5
- Renilla control light, replicate 2: 1.58e6
- Outcome: inactive

Ccp84Af [DRSC25262]
- firefly reporter light, replicate 1: 7.61e5
- firefly reporter light, replicate 2: 7.70e5
- Renilla control light, replicate 1: 7.57e5
- Renilla control light, replicate 2: 6.82e5
- Outcome: inactive

CG11414 [DRSC04110]
- firefly reporter light, replicate 1: 6.93e5
- firefly reporter light, replicate 2: 6.66e5
- Renilla control light, replicate 1: 1.32e6
- Renilla control light, replicate 2: 1.43e6
- Outcome: inactive

CG9752 [DRSC04562]
- firefly reporter light, replicate 1: 7.95e5
- firefly reporter light, replicate 2: 7.50e5
- Renilla control light, replicate 1: 1.71e6
- Renilla control light, replicate 2: 1.86e6
- Outcome: inactive

Nipped-A [DRSC04882]
- Outcome: inactive

Nipped-A [DRSC04883]
- firefly reporter light, replicate 1: 5.18e5
- firefly reporter light, replicate 2: 4.37e5
- Renilla control light, replicate 1: 2.38e6
- Renilla control light, replicate 2: 2.07e6
- Outcome: inactive

Nipped-A [DRSC04884]
- firefly reporter light, replicate 1: 2.69e5
- firefly reporter light, replicate 2: 6.28e5
- Renilla control light, replicate 1: 1.10e6
- Renilla control light, replicate 2: 1.93e6
- Outcome: inactive

Nipped-A [DRSC07738]
- firefly reporter light, replicate 1: 1.30e5
- firefly reporter light, replicate 2: 1.56e5
- Renilla control light, replicate 1: 9.86e5
- Renilla control light, replicate 2: 1.59e6
- Outcome: inactive

Nipped-A [DRSC22386]
- firefly reporter light, replicate 1: 8.88e5
- firefly reporter light, replicate 2: 9.48e5
- Renilla control light, replicate 1: 2.74e6
- Renilla control light, replicate 2: 2.47e6
- Outcome: inactive

CG1532 [DRSC20516]
- firefly reporter light, replicate 1: 75164
- firefly reporter light, replicate 2: 40375
- Renilla control light, replicate 1: 5.22e5
- Renilla control light, replicate 2: 2.86e5
- Outcome: inactive

zen2 (zerknullt-related) [DRSC12633]
- firefly reporter light, replicate 1: 66634
- firefly reporter light, replicate 2: 50469
- Renilla control light, replicate 1: 9.47e5
- Renilla control light, replicate 2: 1.17e6
- Outcome: inactive

zen2 (zerknullt-related) [DRSC27908]
- firefly reporter light, replicate 1: 5.12e5
- firefly reporter light, replicate 2: 3.84e5
- Renilla control light, replicate 1: 1.85e6
- Renilla control light, replicate 2: 1.59e6
- Outcome: inactive

aurB (aurora B) [DRSC03548]
- firefly reporter light, replicate 1: 8.70e5
- firefly reporter light, replicate 2: 6.65e5
- Renilla control light, replicate 1: 2.26e6
- Renilla control light, replicate 2: 1.62e6
- Outcome: inactive

aurB (aurora B) [DRSC23324]
- firefly reporter light, replicate 1: 3.77e5
- firefly reporter light, replicate 2: 4.61e5
- Renilla control light, replicate 1: 1.09e6
- Renilla control light, replicate 2: 8.91e5
- Outcome: inactive

CG12708 [DRSC19490]
- firefly reporter light, replicate 1: 2.91e5
- firefly reporter light, replicate 2: 3.19e5
- Renilla control light, replicate 1: 3.07e6
- Renilla control light, replicate 2: 3.73e6
- Outcome: inactive

CG12155 [DRSC23294]
- firefly reporter light, replicate 1: 2.29e5
- firefly reporter light, replicate 2: 2.20e5
- Renilla control light, replicate 1: 1.51e6
- Renilla control light, replicate 2: 1.28e6
- Outcome: inactive

CG30429 [DRSC04040]
- firefly reporter light, replicate 1: 1.11e5
- firefly reporter light, replicate 2: 1.83e5
- Renilla control light, replicate 1: 3.18e5
- Renilla control light, replicate 2: 5.35e5
- Outcome: inactive

superdeath (Suppressor of ER stress-induced death) [DRSC14868]
- firefly reporter light, replicate 1: 4.18e5
- firefly reporter light, replicate 2: 4.20e5
- Renilla control light, replicate 1: 2.34e6
- Renilla control light, replicate 2: 2.69e6
- Outcome: inactive

superdeath (Suppressor of ER stress-induced death) [DRSC24146]
- firefly reporter light, replicate 1: 6.26e5
- firefly reporter light, replicate 2: 1.10e6
- Renilla control light, replicate 1: 1.35e6
- Renilla control light, replicate 2: 8.11e5
- Outcome: inactive

CR40441 (pseudo) [DRSC22916]
- firefly reporter light, replicate 1: 3.97e5
- firefly reporter light, replicate 2: 8.61e5
- Renilla control light, replicate 1: 7.41e5
- Renilla control light, replicate 2: 1.43e6
- Outcome: inactive

Tsp97E (Tetraspanin 97E) [DRSC16019]
- firefly reporter light, replicate 1: 64170
- firefly reporter light, replicate 2: 1.13e5
- Renilla control light, replicate 1: 6.06e5
- Renilla control light, replicate 2: 7.58e5
- Outcome: inactive

Tsp97E (Tetraspanin 97E) [DRSC28053]
- firefly reporter light, replicate 1: 3.78e5
- firefly reporter light, replicate 2: 4.40e5
- Renilla control light, replicate 1: 1.54e6
- Renilla control light, replicate 2: 1.44e6
- Outcome: inactive

Quoted from above, 4 entries:
Ccp84Af [DRSC12591]
- firefly reporter light, replicate 1: 70209
- firefly reporter light, replicate 2: 84110
- Renilla control light, replicate 1: 9.81e5
- Renilla control light, replicate 2: 1.58e6
- Outcome: inactive

Ccp84Af [DRSC25262]
- firefly reporter light, replicate 1: 7.61e5
- firefly reporter light, replicate 2: 7.70e5
- Renilla control light, replicate 1: 7.57e5
- Renilla control light, replicate 2: 6.82e5
- Outcome: inactive

CG11414 [DRSC04110]
- firefly reporter light, replicate 1: 6.93e5
- firefly reporter light, replicate 2: 6.66e5
- Renilla control light, replicate 1: 1.32e6
- Renilla control light, replicate 2: 1.43e6
- Outcome: inactive

CG9752 [DRSC04562]
- firefly reporter light, replicate 1: 7.95e5
- firefly reporter light, replicate 2: 7.50e5
- Renilla control light, replicate 1: 1.71e6
- Renilla control light, replicate 2: 1.86e6
- Outcome: inactive
